Mtb cholesterol medium: 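Whole-cell growth test on Mycobacterium tuberculosis, read after 4 days in a medium based on cholesterol and the lipid DPPC; the read-out is not stated. Compounds at 50 µM. The record gives no direction; compounds that gave an IC50 in retests scored well above the rest, so higher reads as more growth inhibition. About 69,000 compounds were tested under these conditions; 0.54% (about 370) showed 50% or more at least once.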
Mtb glucose medium: 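Whole-cell growth test on Mycobacterium tuberculosis, read after 3 days in glucose-containing 7H9 medium; the read-out is not stated. Compounds at 50 µM. The record gives no direction; compounds that gave an IC50 in retests scored well above the rest, so higher reads as more growth inhibition. Of about 69,000 compounds tested this way, about 760 (1.1%) reached 50% or more in at least one test.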

The filed quantity is “Percent Effect” (%). The controls that fix the scale are not given in the record; negative values are as filed. The compounds are a random part of those screened. Two or more numbers in one place are separate tests of the same structure; such repeats can differ widely.

SMILES,Mtb cholesterol medium,Mtb glucose medium
Cc1nc(-c2noc3ccc(C(=O)NCCN4CCOCC4)cc23)co1,-16.49%,-28.47% and -5.035%
O=C(O)C(F)(F)F.[H][C@@]12CN(c3ncc(C)cn3)C[C@@]1([H])N(CC(C)C)C(=O)CO2,-7.858%,-8.514% and -6.976%
COc1ccc(CNC2CCC(O)CC2)cc1OCCCC#N (stereo not shown),-5.128%,19.65%
Cc1cc(C)c2nc(CNC3CCCNC3=O)cc(O)c2c1 (stereo not shown),9.902%,-12.48%
FC(F)(F)c1ccc(-n2ccnc2-c2cc3n(n2)CCNC3)cn1,-30.34%,8.302%
CCc1nnsc1C(=O)N1CCOC(c2nc(C)n[nH]2)C1 (stereo not shown),1.887%,13.43%
COCCN1CCc2ncc(CN(C)C)n2CC1,-4.791%,2.086% and -12.23%
[H][C@@]12CS(=O)(=O)C[C@]1([H])N(C(=O)c1snnc1C)CCN2C(C)=O,1.578% and -7.778%,5.151%
CCC(=O)N1CCC(Cc2ccccc2-c2ccccc2)(C(N)=O)C1 (stereo not shown),-0.4651%,23.07%
CN(Cc1cnn(C)c1)C(=O)NCCc1ccc2c(c1)OCCO2,7.05%,-1.647%
CN(Cc1cccnc1)C(=O)NC1CCN(Cc2ccccn2)CC1,-20.4%,-16.89%
c1cnc(N2CCN(Cn3nccc3-c3cccnc3)CC2)nc1,5.242%,-37.31%
O=C(O)C(F)(F)F.O=C(O)C(F)(F)F.O=C(O)c1cc2c(nc1N1CCOCC1)CCN(C1CCOC1)CC2 (stereo not shown),9.654% and -8.245%,-10.28% and -4.135%
O=C1CC2(CCN(c3nncs3)C2)CN1c1ccccc1 (stereo not shown),-4.504% and -6.101%,-2.351%
O=c1[nH]c(-c2ccccc2)nc2c1CCN(S(=O)(=O)N1CCCC1)C2,16.66%,-5.704% and 0.9106%
[H][C@@]12COC[C@@H](C(=O)N3CCOCC3)[C@]1([H])CN(C1CCCCC1)C2,-3.733%,27.72%
CC(C)c1noc(CNc2ccccc2CC(=O)N(C)C)n1,-14.39%,0.9881%
CN(C)CCNc1cc(-c2ccc[nH]c2=O)c2cc[nH]c2n1,-17.37% and 2.403%,-9.744%
CCCN(C)c1ncc2c(n1)N(C)CCN(CC1CC1)C2=O,17.46%,42.74%
CC(C)Oc1ncccc1CNC(=O)C1CCCN(C(=O)C2CC2)C1 (stereo not shown),-15.64%,-20.95%
CCOC(=O)CN(C)Cc1cnc(C)s1,-4.23%,1.381%
c1ccc(CN2CCc3ncnc(-c4cncnc4)c3CC2)nc1,-28.52%,-55.85%
Cc1cc(CN2CCc3cncnc3C2)on1,-40.51%,-66.64%
COc1ccc(-n2ncc(C(C)NC3CCOCC3)c2C)cc1 (stereo not shown),-3.341%,-12.68%
FC(F)(F)C1CCc2nnc(CNCc3cccs3)n2C1 (stereo not shown),-16.52%,-14.13%
CC(C(=O)N1CCN(c2ncccn2)CC1)n1cncn1 (stereo not shown),-29.57%,3.48%
Cc1cccc(-c2c[nH]c(C3CCCN3)n2)c1.Cl.Cl (stereo not shown),16.12%,4.135%
CNS(=O)(=O)c1cccc(CNc2ncccn2)c1,-19.1%,-8.511%
Cc1cc(N2CCCC(c3nncn3C3CC3)C2)ncn1 (stereo not shown),-4.878%,5.455%
CC(C)Oc1ccc(C(=O)N2CC[C@H](O)[C@@H](n3ccnc3)CC2)cc1,-18.54%,9.643%
CC(C)(CN1CCC2(CCNCC2)CC1)N1CCOCC1,28.53%,-8.492%
Cn1ccnc1C1CCN(C(=O)COCC(F)(F)C(F)F)CC1,13%,-3.779%
CC(C)(C)c1cccc(OCC(=O)NS(=O)(=O)c2cccnc2)c1,-25.65%,-11.7%
CN1CCN(c2ccc(NS(=O)(=O)c3ccc(Cl)s3)cc2C(=O)O)CC1,-11.25%,-4.817%
O=C(Cn1ccc2c(Cl)cccc21)N1CCCC1,19.03%,47.86%
CC(C)CN(C)Cc1nc2c(cnn2C)c(=O)[nH]1,-32.48%,-26.74%
CC(C)NC(=O)NC[C@H]1OC[C@@H](NCc2ccccc2F)[C@@H]1O,7.323%,23.77% and -5.614%
CN1CCCc2cc(NC(=O)N3CCOC(C(N)=O)C3)ccc21 (stereo not shown),-9.776%,-0.6249%
COCc1nc2nc(O)c3c(n2n1)NC(=O)CC3c1ccc(SC)cc1 (stereo not shown),32.16%,6.41%
CN(CCc1ccccn1)C1CCCN(Cc2noc(C3CC3)n2)C1 (stereo not shown),-26.89%,-4.086%
Cl.Cl.Cn1cc(C(=O)NCc2cncc3c2CCN(c2ccccn2)C3)cn1,-20.84%,-8.381%
CCCNC(=O)c1ccc(S(=O)(=O)NCC2(COC)CCCC2)cc1,5.476%,22.73%
O=C(c1cc(Br)ccc1-n1cnnn1)N1CCCC1,-5.764%,-21.45%

5 of the entries, repeated:

Result for Cc1cc(N2CCCC(c3nncn3C3CC3)C2)ncn1 (stereo not shown) was Mtb cholesterol medium: -4.878%; Mtb glucose medium: 5.455%.
Result for CN(C)CCNc1cc(-c2ccc[nH]c2=O)c2cc[nH]c2n1 was Mtb cholesterol medium: -17.37% and 2.403%; Mtb glucose medium: -9.744%.
Result for c1ccc(CN2CCc3ncnc(-c4cncnc4)c3CC2)nc1 was Mtb cholesterol medium: -28.52%; Mtb glucose medium: -55.85%.
Result for CC(C)CN(C)Cc1nc2c(cnn2C)c(=O)[nH]1 was Mtb cholesterol medium: -32.48%; Mtb glucose medium: -26.74%.
Result for CN1CCN(c2ccc(NS(=O)(=O)c3ccc(Cl)s3)cc2C(=O)O)CC1 was Mtb cholesterol medium: -11.25%; Mtb glucose medium: -4.817%.

The values are deposited in ChEMBL (CHEMBL3988442, “University of Dundee, Small-Polar-MMV Screening Library” (2021)).